This passage reports binding results from publication PMC7383964 (Chemmedchem, 2020).

Chains of the proteins cited; added tags and fusions are not shown.
UniProt P35372: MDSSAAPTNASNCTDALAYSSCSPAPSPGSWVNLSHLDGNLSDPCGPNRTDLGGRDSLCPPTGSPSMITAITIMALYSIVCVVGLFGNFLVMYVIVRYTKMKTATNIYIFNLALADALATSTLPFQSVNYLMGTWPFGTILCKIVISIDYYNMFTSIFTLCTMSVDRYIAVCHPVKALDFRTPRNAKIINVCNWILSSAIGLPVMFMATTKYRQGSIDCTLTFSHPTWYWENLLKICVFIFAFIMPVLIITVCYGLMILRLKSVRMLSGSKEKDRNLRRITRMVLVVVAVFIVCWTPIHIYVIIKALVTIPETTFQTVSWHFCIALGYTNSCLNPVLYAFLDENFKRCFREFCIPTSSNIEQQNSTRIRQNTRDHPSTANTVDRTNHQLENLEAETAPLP
UniProt P32121: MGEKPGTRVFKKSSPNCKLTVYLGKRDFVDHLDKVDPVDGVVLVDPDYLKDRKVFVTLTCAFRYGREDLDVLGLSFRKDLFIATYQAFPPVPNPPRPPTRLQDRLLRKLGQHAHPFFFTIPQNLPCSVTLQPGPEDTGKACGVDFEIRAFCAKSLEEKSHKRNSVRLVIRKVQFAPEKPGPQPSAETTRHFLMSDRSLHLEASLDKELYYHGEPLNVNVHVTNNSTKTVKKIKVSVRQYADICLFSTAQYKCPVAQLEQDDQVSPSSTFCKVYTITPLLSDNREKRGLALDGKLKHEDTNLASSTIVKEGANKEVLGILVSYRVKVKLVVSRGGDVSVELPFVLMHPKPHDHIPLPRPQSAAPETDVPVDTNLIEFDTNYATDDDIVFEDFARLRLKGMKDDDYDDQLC

The target in the assay is ProLink-tagged μ-OR-PK1 (μ-opioid receptor) (human) (UniProt P35372). As to the kind of experiment: split reporter; PathHunter luminescence-based enzyme complementation in HEK-293 cells (EA-tagged β-arrestin-2 stable, ProLink-tagged μ-OR-PK1 and GRK2 1:1 transient); stimulation with the reference agonist DAMGO (1 μM in antagonist mode), 90 min at 37 °C; compounds 9 b and 16 b preincubated 30 min.

These are yes or no findings as the source states them, for the method shown. In cells and extracts the contact can be indirect. Some entries that bind do so weakly or less than the wild type.

As to “enzyme acceptor (EA)-tagged β-arrestin-2 fusion protein (from UniProt P32121 1-409)”, the binding result is “binds”.
